Experimental findings from patent US20250206828A1, “ANTI-ADENOSINE RECEPTOR (A2aR) ANTIBODIES AND THE USE THEREOF” (Adept Therapeutics Inc., priority 2022, published 2025) are described below.

Numbering of substitutions follows the chain as printed. In names and notes the source's numbering stands. These are yes or no findings as the source states them, for the method shown. Binding can be weak; no strength is given.

In experiment [1] the target is cynomolgus adenosine A2A receptor (A2aR) (cynomolgus). Nature of the experiment: flow cytometry on cynomolgus PBMC.
The target is the same in experiment [2]. Kind of experiment: flow cytometry on cynomolgus PBMC, FIG. 4B.

B1: Hu3F6-H3/Hu3F6-L5 (antibody, human IgG1, V domains shown)
VH: EVQLVQSGAEVKKPGASVKVSCKTSGFAFTSYWMNWVRQAPGQGLEWIGRIDPSDSEAHYHHKFWGRATLTVDTSSSTVYMELSSLRSEDTAVYYCLRSLYGKGDYWGHGTTVTVSS
VL: DVVMTQTPLSLSVTPGQPASISCRSSQSLVHRNGNTYLEWYLQKPGQSPQLLIYKVSNRFSGVPDRFSGSGSGTDFTLKISRVEAEDVGVYYCYQGSHVPLTFGGGTKVEIK
notes: Human IgG1 FES (L234F, L235E, P331S) and human Ig kappa constant domains; also called Hu3F6 VH3/VL5; Hu3F6-VH3/VL5
Consider B1, for which the binding result in experiment [1] and in experiment [2] was “binds” each time.

B2: Hu3F6-H5/Hu3F6-L5 (antibody, human IgG1, V domains shown)
VH: B1 VH with H61A, T74K
VL: B1 VL
notes: Human IgG1 FES (L234F, L235E, P331S) and human Ig kappa constant domains; also called Hu3F6 VH5/VL5; Hu3F6-VH5/VL5
On to B2, for which the binding entry in experiment [1] and in experiment [2] was “binds” each time.
